Test results reported in the supplement of paper PMC12823440, “Inhibitors supercharge kinase turnover through native proteolytic circuits” (Nature, 2025).
Structures can show the parent of a compound that is named as a salt. Some of the results follow. The calls rarely recur for the same compound in another form.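 Kinases, fused to nanoluciferase, were expressed in K562 cells; luminescence was measured every 4 h from 2 to 18 h as percent of control (DMSO = 100%, positive control = 0%). A time point is decreased if signal falls significantly (2 sigma). Hits were called by the authors by a rule that is not shown; the count of time points alone does not decide it.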

Sequences of proteins named here, by UniProt entry; tags and fusion partners are left off. A change or cut given only in a name is not applied to a line headed by its entry.
UniProt Q9UM73: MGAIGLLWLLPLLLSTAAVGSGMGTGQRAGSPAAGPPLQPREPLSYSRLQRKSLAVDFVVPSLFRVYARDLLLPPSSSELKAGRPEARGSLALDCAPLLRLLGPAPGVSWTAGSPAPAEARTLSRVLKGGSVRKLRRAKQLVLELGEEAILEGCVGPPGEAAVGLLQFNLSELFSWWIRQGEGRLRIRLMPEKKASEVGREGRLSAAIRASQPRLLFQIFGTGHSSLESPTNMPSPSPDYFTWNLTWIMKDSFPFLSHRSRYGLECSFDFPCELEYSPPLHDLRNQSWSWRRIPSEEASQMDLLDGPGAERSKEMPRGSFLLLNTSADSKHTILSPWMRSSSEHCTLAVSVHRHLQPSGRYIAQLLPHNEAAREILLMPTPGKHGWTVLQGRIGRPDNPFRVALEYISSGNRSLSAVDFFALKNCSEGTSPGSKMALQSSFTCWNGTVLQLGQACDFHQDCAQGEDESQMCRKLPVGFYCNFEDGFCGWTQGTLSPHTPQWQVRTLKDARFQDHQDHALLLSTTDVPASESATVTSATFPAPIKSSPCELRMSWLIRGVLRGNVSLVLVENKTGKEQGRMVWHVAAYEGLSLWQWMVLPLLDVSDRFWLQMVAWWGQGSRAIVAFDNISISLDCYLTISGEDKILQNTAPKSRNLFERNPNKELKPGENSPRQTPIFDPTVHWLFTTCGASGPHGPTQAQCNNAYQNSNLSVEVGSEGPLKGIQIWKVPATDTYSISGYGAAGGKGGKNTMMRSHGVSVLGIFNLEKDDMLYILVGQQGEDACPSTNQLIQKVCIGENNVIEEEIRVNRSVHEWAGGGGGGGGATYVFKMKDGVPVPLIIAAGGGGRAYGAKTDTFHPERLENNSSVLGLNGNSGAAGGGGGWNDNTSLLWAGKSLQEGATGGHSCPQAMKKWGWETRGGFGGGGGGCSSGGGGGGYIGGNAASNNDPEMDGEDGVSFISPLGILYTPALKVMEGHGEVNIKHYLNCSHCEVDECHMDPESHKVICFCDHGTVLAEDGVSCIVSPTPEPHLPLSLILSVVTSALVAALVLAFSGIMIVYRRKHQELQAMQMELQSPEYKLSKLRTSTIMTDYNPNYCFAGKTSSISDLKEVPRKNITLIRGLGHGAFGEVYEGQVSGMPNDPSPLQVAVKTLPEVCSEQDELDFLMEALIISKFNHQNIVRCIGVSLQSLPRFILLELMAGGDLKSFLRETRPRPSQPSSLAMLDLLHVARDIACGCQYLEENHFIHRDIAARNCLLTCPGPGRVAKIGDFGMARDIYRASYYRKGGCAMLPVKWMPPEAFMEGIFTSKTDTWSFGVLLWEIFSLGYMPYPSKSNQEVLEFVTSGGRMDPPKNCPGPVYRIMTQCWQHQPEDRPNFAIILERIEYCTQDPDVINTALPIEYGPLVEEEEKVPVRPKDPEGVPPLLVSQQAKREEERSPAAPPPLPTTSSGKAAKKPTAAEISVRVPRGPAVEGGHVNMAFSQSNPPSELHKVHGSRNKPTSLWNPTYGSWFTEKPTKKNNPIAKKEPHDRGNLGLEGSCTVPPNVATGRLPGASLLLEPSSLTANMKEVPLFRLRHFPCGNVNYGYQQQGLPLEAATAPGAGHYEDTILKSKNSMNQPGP
UniProt P10398: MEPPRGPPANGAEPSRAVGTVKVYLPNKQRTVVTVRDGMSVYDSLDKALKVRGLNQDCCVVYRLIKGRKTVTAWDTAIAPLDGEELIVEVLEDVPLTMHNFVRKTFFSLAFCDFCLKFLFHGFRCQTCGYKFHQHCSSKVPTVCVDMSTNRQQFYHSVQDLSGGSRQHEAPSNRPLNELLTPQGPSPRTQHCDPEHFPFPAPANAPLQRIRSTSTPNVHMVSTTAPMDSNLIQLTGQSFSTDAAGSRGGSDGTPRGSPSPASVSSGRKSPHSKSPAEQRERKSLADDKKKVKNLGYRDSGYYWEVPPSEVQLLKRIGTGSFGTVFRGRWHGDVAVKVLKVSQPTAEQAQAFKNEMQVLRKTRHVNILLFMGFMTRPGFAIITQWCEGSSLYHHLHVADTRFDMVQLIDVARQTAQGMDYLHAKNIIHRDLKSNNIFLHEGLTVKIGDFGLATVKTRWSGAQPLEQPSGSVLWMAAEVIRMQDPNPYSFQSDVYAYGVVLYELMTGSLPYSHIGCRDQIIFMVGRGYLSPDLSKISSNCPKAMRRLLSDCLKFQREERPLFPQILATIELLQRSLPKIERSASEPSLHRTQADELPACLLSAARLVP
UniProt O14965: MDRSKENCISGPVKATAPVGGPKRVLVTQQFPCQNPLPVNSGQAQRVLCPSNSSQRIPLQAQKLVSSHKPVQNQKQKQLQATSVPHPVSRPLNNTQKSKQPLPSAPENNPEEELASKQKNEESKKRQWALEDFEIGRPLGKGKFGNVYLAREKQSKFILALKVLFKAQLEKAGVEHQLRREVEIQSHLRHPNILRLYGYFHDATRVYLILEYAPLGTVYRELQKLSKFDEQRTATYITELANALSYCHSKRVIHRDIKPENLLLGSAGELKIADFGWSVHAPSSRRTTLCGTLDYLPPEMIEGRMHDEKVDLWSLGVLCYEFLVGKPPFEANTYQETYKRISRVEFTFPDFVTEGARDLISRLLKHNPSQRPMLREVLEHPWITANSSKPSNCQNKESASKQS
UniProt Q96GD4, whole entry: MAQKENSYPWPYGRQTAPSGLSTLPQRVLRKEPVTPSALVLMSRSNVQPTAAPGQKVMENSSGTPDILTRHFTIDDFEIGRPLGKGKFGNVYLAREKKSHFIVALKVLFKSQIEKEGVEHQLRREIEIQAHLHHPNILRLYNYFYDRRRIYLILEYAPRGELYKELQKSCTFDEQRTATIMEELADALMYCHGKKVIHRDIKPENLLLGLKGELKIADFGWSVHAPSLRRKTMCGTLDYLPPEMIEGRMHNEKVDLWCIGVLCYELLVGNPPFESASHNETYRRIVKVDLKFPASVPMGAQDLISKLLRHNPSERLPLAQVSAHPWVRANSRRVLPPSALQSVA
UniProt Q9UQB9: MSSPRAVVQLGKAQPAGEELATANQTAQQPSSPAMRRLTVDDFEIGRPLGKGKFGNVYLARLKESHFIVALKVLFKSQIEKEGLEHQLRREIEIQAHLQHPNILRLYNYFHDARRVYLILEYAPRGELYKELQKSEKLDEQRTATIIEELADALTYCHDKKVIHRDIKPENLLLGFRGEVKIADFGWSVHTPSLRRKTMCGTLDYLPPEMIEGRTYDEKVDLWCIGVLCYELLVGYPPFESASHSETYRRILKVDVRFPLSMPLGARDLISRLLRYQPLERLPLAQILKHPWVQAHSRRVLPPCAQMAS
UniProt P51451: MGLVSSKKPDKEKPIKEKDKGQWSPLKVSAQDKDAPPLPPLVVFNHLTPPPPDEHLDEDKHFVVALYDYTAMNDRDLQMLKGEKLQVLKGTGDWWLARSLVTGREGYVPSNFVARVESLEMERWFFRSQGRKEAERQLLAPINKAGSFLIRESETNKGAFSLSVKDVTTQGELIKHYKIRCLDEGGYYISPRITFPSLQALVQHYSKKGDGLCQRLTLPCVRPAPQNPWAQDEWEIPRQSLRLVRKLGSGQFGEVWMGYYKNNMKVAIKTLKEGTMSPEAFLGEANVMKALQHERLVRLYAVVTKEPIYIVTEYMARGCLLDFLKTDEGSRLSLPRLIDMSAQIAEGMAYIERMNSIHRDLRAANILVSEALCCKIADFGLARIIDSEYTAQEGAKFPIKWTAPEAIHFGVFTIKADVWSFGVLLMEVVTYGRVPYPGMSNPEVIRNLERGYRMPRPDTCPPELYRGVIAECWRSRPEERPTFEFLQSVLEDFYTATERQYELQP
UniProt P51813: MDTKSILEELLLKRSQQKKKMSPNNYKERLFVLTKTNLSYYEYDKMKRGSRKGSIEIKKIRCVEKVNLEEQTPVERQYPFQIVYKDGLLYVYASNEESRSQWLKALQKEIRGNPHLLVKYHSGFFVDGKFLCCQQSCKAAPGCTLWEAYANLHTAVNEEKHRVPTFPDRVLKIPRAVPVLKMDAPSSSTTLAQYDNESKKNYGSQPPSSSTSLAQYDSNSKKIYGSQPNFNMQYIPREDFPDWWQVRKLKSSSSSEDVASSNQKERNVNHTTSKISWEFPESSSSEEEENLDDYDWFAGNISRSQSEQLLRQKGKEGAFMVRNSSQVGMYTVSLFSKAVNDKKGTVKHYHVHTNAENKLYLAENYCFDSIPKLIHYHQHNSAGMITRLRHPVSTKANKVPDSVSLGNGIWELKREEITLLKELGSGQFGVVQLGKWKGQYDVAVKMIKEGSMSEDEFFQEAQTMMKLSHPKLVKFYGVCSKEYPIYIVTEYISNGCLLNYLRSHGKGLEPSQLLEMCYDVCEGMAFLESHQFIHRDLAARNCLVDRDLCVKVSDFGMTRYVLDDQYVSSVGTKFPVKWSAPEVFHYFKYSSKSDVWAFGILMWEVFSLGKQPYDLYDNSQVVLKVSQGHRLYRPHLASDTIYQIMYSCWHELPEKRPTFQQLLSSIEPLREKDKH
UniProt P15056, whole entry, looked up: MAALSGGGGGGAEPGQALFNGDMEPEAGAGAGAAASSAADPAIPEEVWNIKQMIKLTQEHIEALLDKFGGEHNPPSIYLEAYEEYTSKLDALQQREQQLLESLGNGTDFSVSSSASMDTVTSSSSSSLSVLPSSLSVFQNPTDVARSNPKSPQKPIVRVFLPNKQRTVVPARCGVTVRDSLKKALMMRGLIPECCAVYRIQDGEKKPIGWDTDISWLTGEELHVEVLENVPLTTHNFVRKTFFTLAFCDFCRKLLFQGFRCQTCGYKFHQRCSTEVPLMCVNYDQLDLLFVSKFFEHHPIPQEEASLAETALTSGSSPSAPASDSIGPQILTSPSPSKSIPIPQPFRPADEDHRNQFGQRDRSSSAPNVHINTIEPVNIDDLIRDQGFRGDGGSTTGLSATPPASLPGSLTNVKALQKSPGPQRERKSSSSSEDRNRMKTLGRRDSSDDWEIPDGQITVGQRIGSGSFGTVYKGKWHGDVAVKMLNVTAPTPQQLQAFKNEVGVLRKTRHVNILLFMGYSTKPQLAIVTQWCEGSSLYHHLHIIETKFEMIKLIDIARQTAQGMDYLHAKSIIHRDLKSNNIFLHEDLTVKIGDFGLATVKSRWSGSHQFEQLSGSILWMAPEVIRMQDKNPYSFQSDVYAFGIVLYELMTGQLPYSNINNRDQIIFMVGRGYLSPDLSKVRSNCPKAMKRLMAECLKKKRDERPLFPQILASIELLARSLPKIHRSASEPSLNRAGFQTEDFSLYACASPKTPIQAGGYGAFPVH
UniProt Q06187: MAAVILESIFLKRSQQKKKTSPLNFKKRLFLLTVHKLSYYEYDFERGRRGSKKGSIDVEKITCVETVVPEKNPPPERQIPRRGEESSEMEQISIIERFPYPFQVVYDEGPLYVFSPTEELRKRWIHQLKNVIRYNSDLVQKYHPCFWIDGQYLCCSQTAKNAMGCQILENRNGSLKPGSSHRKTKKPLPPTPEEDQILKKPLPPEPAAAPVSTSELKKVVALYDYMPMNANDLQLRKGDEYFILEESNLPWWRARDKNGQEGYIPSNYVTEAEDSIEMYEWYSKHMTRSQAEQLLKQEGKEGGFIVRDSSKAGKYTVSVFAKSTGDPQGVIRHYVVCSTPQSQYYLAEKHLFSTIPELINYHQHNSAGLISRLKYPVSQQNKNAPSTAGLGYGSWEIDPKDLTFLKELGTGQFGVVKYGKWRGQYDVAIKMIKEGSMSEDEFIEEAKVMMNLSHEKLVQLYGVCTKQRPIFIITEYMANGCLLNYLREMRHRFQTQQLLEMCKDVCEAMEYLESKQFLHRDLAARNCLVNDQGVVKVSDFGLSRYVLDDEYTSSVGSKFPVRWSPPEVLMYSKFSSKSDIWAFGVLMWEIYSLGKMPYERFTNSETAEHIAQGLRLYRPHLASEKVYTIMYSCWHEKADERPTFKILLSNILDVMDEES

What was measured:
Assay in all cases: number of time points (of 5) at which kinase-Nluc abundance scored as decreased, DMSO-normalised (count); higher = more persistent destabilization
Conditions in all cases: K562; 2-18 h
ALK = ALK (UniProt Q9UM73)
ARAF = ARAF (UniProt P10398)
AURKA = AURKA (UniProt O14965)
AURKB = AURKB (UniProt Q96GD4)
AURKC = AURKC (UniProt Q9UQB9)
BLK = BLK (UniProt P51451)
BMX = BMX (UniProt P51813)
BRAF = BRAF (UniProt P15056)
BRAF_V600E = test system: BRAF_V600E
BTK = BTK (UniProt Q06187)

Measured: number of time points

COc1ccc(C2CC(c3ccc(Cl)cc3)=NN2c2nc(-c3ccncc3)cs2)cc1 (stereo not given) [mTOR inhibitor-8] (10 µM)
2: BLK
0: all other assays above

CN1CCN(c2ccc(NC(=O)c3ccc(C#N)o3)c(N3CCCCC3)c2)CC1 (10 µM)
0: all assays above

O=C(Nc1cc(Cl)cc(Cl)c1)Nc1cc(Cl)cc(Cl)c1 (10 µM)
0: all assays above

CC(=O)NCC(=O)N[C@@H](C)C(=O)N[C@@H](CCC(N)=O)C(=O)N[C@@H](Cc1ccccc1)C(=O)N[C@@H](CO)C(=O)N[C@@H](CCCCN)C(=O)N[C@H](C(=O)N[C@@H](C)C(=O)N[C@@H](C)C(=O)N[C@@H](CCCCN)C(=O)O)[C@@H](C)O (10 µM)
0: all assays above

COc1ccc(COc2cc3oc(=O)c4cc(C(C)O)ccc4c3cc2OC)cc1 (stereo not given) [Palomid 529] (2.5 µM)
0: all assays above

CCN1C(C)(C)CC(Oc2ccc(C(=O)Nc3ccc(NC(=O)Nc4cc(C(C)(C)C)on4)cc3)nc2)CC1(C)C (10 µM)
0: all assays above

Cc1nc(Nc2ncc(C(=O)Nc3c(C)cccc3Cl)s2)cc(N2CCN(C(=O)CCCCCCC(=O)N[C@H](C(=O)N3C[C@H](O)C[C@H]3C(=O)NCc3ccc(-c4scnc4C)cc3)C(C)(C)C)CC2)n1 (2.5 µM)
1: ARAF | AURKC
5: BMX
4: BLK | BTK
3: BRAF_V600E
2: all other assays above

Cc1c(Br)c(Br)c2c3c1nc(N1CCNCC1)n3CCC2 [SEL120-34A (monohydrochloride)] (2.5 µM)
0: all assays above

Cn1cc(-c2cn3nccc3c(-c3cnn([C@]4(CC#N)C[C@@H](C#N)C4)c3)n2)cn1 (10 µM)
0: all assays above

C[C@@]12CCc3occc3[C@H]1CC[C@@]13C[C@@H](CC[C@H]12)[C@@](O)(CO)C3 [Cafestol] (10 µM)
0: all assays above

C[C@]1(O)C[C@@](N)(c2ccc(-c3nc4n(c3-c3ccccc3)COc3ccncc3-4)cc2)C1 [TAS-117 (hydrochloride)] (10 µM)
0: all assays above

CCC(=O)N1CC[C@H](Nc2ncnc3c2CN(c2cnc(OC)c(C(F)(F)F)c2)CC3)C1 [Leniolisib] (10 µM)
0: all assays above

NC(=O)c1nc(-c2c(F)cccc2Cl)oc1Nc1ccc(C(=O)N2CCOCC2)cc1 (10 µM)
0: all assays above

C[C@@H](Nc1cc(F)cc(F)c1)c1cc(C(=O)N(C)C)cc2c(=O)cc(N3CCOCC3)oc12 (10 µM)
0: all assays above

O=C(Nc1nccs1)C(c1cc(F)ccc1O)N1Cc2ccccc2C1=O (stereo not given) (10 µM)
1: BLK
0: all other assays above

O=C(O)/C=C/c1cc(Br)c(Br)c(Br)c1Br (10 µM)
0: all assays above

N#Cc1cn([C@@H]2O[C@H](CO)[C@@H](O)[C@H]2O)c2nc[nH]c(=O)c12 [Jaspamycin] (10 µM)
0: all assays above

CC(C)=CCC/C(C)=C/CC/C(C)=C/CSc1ccccc1C(=O)O [Salirasib] (10 µM)
0: all assays above

Cc1cc(=O)[nH]c(=S)[nH]1 [Methylthiouracil] (10 µM)
0: all assays above

CC(C)n1nc(C#Cc2ccccc2)c2c(N)ncnc21 (10 µM)
3: BRAF_V600E
1: AURKA
0: all other assays above

O=C(NCc1cccc(O)c1)c1cc2cc(F)ccc2[nH]1 (10 µM)
0: all assays above

CC(=O)Nc1nc(C)c(-c2cc3c(c(S(C)(=O)=O)c2)C(=O)N([C@@H](C)C2CC2)C3)s1 (2.5 µM)
0: all assays above

COc1ccc(S(=O)(=O)N(CCO)c2ccccc2CN(C)CC=Cc2ccc(Cl)cc2)cc1 (2.5 µM)
0: all assays above

Nc1n[nH]c(N)c1N=Nc1ccc(O)cc1 (10 µM)
0: all assays above

OCCC#Cc1nc(-c2ccc(F)cc2)c(-c2ccncc2)n1CCCc1ccccc1 (2.5 µM)
0: all assays above

CC(=O)Nc1nc(C)c(-c2ccc(Cl)c(S(=O)(=O)NCCO)c2)s1 (10 µM)
2: BLK
1: BMX | BRAF_V600E
0: all other assays above

O=C(CC(c1ccccc1)C(C(=O)O)C(=O)O)c1ccc(C(F)(F)F)cc1 (stereo not given) (10 µM)
0: all assays above

Cn1cc(-c2ccc3ncc(Cc4ccc5ncccc5c4)n3n2)cn1 (10 µM)
0: all assays above

O=C(Nc1nccs1)C(c1cc(F)ccc1O)N1Cc2ccc(-c3ccc(N4CCNCC4)cc3)cc2C1=O (racemic) (10 µM)
2: ALK
1: BLK
0: all other assays above

COc1cc2nccc(Oc3ccc(NC(=O)Nc4ccc(F)cc4F)c(F)c3)c2cc1OC (10 µM)
4: BRAF
1: BMX
0: all other assays above

COc1ccc(F)cc1C(=O)NCc1ccc(-c2nn([C@@H](C)C(F)(F)F)c(N)c2C(N)=O)cc1 [Pirtobrutinib] (10 µM)
0: all assays above

C=CC(=O)N1CCC[C@@H](n2c(=O)n(-c3ccc(Oc4ccccc4)cc3)c3c(N)nccc32)C1 [Tolebrutinib] (10 µM)
0: all assays above

COc1cc(-c2cnc(N)c(-c3ccc(NC(=O)c4cn(CC5CCOCC5)cc(-c5ccc(C)cn5)c4=O)cc3F)c2)ccc1OC[C@H]1COCCO1 [DS-1205b (free base)] (10 µM)
0: all assays above

O=C1NCCSc2c1sc1ccc(O)cc21 (2.5 µM)
1: BLK | BRAF_V600E
0: all other assays above

C=CC(=O)N[C@H]1CCOC[C@H]1Nc1ncc2cc(-c3c(Cl)c(OC)cc(OC)c3Cl)ccc2n1 [Fisogatinib] (10 µM)
0: all assays above

For convenience, two of the compounds above.
C=CC(=O)N1CCC[C@@H](n2c(=O)n(-c3ccc(Oc4ccccc4)cc3)c3c(N)nccc32)C1 [Tolebrutinib] (10 µM)
0: all assays above

COc1cc(-c2cnc(N)c(-c3ccc(NC(=O)c4cn(CC5CCOCC5)cc(-c5ccc(C)cn5)c4=O)cc3F)c2)ccc1OC[C@H]1COCCO1 [DS-1205b (free base)] (10 µM)
0: all assays above

The list goes on:

Cc1ccc(CNC(=O)N2CCC[C@]3(CCN(Cc4ccc(Cl)c(Cl)c4)C3)C2)cc1 (10 µM)
0: all assays above

CNC(=O)Nc1cc(Oc2cncc(C)c2)c(-c2ccc(OCC(C)(C)O)nc2)cn1 (2.5 µM)
0: all assays above
